The list shows a part of the results.
Experiments:
Test in all cases: log2 fold change, soluble protein after heating vs DMSO (PISA); higher = thermal stabilisation; K562 lysate, 10 uM; active = over 0.2 and 3.5 SD of the protein, either way, in both replicates (recomputed)
[1] = compound: C1=CC=C(C=C1)[C@H](COC2=CC3=C(C=C2)NC(=O)N3)NC(=O)C4=CC=CN(C4=O)CC5=CC(=C(C=C5)F)F
Summary of the method: (§1)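 A 30 min treatment with 10 μM compound was applied to crude K562 extract at 1 mg/mL protein in PBS pH 7.4 with 1 mM MgCl2. Heating for 3 min spanned 48°C-58°C, after which aliquots were pooled, adjusted to 0.5% NP-40 at 4°C and spun at 21,000xg for 90 min. TMTpro 16plex LC-MS/MS of the supernatant, with channel sums equalised, gave values recorded as log-two fold change in thermal stability against solvent controls, from duplicates.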

The chains behind the UniProt entries cited, without tags or fusion partners. Where a name states a change or a piece, a line headed by the entry shows the natural chain unless it says otherwise.
UniProt Q6ICB0: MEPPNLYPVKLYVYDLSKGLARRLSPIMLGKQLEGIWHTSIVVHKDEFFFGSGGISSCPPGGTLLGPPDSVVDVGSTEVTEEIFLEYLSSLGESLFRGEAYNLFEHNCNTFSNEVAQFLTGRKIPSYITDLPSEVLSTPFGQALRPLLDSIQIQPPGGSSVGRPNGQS
UniProt Q8NA75: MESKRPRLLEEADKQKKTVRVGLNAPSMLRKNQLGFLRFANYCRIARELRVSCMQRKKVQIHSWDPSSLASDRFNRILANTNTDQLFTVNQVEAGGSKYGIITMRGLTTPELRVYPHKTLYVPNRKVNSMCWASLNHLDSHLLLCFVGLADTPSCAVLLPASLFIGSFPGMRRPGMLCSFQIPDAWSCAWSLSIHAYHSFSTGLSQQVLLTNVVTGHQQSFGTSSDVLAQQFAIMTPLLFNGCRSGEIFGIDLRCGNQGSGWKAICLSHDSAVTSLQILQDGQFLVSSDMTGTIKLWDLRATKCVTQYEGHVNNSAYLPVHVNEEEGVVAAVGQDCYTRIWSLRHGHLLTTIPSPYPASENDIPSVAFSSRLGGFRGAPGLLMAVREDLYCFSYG
UniProt O94830: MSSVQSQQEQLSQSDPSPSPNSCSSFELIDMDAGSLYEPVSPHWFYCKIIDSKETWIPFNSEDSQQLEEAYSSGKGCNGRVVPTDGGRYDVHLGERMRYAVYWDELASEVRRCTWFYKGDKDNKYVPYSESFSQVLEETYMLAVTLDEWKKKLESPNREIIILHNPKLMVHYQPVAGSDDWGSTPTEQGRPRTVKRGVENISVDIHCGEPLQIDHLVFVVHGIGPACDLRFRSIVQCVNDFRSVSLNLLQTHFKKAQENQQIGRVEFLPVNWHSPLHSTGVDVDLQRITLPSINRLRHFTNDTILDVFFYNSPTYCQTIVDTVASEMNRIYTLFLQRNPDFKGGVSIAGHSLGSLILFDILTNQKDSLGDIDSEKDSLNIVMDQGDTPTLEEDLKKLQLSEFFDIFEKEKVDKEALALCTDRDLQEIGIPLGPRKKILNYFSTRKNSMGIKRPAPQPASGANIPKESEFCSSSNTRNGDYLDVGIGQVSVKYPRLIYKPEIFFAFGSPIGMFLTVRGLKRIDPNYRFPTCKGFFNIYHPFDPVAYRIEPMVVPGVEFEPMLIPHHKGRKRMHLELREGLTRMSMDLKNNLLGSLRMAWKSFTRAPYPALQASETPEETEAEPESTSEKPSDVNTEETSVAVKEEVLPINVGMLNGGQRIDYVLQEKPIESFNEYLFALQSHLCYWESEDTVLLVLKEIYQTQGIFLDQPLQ
UniProt Q9UHI6: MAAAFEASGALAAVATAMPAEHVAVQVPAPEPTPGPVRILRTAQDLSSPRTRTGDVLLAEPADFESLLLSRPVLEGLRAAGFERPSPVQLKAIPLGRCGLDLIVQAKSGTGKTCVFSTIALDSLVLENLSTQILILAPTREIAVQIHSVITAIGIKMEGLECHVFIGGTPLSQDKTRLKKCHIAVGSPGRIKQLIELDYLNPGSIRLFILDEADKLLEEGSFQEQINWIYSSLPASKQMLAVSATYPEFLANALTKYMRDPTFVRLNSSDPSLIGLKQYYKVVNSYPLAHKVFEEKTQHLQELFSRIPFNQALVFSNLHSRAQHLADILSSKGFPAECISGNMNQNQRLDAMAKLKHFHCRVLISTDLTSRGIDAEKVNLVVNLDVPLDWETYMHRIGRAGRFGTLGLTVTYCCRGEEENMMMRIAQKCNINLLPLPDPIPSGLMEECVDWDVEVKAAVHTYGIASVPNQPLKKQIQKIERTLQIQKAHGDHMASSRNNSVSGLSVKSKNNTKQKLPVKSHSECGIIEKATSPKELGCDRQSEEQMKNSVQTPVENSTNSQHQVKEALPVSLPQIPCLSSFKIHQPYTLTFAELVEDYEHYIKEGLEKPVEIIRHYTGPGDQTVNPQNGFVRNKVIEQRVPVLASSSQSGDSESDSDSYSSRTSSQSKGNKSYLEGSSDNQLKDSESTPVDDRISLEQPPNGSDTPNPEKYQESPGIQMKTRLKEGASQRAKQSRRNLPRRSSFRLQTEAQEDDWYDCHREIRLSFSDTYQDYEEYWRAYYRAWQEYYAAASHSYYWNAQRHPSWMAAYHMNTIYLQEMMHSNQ
UniProt Q9UBU7: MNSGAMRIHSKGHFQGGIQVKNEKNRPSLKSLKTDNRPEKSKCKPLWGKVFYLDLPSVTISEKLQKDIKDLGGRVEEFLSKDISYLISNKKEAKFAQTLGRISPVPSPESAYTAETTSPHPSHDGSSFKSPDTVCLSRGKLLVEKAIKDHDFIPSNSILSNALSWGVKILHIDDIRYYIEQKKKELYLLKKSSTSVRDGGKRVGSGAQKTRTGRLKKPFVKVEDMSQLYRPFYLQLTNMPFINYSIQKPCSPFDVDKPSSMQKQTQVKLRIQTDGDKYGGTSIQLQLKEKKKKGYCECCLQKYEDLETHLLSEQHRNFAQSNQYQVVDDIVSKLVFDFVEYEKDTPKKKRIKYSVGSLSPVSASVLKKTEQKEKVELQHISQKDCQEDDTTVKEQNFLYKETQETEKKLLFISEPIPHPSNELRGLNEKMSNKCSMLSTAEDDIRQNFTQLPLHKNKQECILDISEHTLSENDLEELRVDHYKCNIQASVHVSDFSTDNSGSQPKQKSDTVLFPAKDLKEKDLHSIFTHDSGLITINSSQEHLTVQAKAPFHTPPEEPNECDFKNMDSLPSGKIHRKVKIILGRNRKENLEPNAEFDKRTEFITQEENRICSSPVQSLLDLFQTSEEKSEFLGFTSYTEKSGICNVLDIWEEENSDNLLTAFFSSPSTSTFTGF
UniProt Q8IZD4: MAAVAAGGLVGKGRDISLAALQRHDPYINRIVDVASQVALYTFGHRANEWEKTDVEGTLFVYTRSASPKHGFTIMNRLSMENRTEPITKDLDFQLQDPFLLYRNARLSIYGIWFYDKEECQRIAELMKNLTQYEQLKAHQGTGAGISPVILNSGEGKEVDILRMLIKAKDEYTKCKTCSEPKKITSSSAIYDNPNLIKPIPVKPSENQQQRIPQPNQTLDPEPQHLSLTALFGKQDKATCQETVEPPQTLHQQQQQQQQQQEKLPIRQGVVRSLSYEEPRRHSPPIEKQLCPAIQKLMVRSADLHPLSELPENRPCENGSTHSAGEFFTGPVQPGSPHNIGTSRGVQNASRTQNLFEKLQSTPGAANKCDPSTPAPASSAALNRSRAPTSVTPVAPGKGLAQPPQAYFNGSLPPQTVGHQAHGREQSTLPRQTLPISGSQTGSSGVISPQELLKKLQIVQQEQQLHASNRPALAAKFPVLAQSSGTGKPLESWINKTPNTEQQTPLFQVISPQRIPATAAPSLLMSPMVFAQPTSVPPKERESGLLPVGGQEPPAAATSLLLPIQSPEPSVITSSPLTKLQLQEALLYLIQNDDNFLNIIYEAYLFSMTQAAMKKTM
UniProt Q7Z401: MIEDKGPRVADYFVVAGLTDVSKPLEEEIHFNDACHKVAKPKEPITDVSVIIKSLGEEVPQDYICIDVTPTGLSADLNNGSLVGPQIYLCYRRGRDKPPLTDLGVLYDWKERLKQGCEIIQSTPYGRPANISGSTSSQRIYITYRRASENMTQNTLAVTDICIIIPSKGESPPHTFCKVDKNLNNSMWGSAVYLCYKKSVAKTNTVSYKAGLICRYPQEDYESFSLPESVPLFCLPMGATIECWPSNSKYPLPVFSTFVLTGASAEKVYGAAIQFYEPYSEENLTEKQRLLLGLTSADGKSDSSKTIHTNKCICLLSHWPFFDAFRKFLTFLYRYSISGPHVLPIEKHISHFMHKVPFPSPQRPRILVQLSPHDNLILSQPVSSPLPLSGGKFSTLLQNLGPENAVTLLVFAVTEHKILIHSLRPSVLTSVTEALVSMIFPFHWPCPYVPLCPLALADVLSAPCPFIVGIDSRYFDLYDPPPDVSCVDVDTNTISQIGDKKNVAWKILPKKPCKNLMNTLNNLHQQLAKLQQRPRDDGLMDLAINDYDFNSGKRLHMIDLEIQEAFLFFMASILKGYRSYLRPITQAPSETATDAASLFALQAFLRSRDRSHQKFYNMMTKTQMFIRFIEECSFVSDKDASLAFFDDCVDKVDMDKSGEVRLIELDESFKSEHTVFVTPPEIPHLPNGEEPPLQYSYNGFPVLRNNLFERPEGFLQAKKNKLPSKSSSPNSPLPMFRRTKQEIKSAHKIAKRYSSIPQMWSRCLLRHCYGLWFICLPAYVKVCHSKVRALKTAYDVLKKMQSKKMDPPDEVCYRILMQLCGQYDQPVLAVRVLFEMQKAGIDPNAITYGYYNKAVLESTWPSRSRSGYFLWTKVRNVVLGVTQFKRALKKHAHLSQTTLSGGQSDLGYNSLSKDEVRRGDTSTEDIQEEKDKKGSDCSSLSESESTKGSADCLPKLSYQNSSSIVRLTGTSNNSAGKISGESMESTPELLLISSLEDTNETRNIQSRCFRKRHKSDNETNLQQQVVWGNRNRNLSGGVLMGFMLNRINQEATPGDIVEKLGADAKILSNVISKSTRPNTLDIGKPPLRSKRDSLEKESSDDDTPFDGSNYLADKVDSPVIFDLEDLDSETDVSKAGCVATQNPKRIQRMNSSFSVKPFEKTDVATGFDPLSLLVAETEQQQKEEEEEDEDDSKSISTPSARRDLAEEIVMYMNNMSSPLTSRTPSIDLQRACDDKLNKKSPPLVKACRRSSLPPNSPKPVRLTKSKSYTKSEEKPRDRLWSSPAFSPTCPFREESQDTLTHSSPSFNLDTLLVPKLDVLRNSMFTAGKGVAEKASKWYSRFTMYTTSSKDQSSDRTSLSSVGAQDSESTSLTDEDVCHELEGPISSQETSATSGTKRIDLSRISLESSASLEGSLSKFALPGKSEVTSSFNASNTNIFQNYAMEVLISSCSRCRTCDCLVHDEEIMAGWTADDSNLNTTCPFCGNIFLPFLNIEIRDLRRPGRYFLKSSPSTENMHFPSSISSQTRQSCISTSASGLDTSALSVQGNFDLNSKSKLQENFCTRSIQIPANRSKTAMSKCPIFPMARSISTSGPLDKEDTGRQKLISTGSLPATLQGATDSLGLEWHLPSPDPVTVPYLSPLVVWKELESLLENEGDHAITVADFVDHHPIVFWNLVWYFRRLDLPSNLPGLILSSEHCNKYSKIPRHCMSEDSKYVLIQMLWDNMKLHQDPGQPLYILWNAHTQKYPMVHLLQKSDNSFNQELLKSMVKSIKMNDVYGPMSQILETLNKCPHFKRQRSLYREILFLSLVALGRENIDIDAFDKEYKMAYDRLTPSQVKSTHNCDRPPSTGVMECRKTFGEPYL
UniProt Q13561, whole entry, looked up: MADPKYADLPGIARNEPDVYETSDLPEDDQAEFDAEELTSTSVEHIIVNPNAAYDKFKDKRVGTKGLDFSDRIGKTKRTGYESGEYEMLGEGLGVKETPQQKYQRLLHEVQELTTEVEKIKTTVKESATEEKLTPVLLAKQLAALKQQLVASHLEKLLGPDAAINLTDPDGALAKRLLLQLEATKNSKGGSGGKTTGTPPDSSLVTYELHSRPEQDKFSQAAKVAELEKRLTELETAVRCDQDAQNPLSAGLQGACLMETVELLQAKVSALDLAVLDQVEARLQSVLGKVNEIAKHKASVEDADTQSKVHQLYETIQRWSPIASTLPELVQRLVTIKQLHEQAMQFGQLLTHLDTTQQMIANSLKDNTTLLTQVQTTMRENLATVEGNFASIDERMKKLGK
UniProt Q5QP82: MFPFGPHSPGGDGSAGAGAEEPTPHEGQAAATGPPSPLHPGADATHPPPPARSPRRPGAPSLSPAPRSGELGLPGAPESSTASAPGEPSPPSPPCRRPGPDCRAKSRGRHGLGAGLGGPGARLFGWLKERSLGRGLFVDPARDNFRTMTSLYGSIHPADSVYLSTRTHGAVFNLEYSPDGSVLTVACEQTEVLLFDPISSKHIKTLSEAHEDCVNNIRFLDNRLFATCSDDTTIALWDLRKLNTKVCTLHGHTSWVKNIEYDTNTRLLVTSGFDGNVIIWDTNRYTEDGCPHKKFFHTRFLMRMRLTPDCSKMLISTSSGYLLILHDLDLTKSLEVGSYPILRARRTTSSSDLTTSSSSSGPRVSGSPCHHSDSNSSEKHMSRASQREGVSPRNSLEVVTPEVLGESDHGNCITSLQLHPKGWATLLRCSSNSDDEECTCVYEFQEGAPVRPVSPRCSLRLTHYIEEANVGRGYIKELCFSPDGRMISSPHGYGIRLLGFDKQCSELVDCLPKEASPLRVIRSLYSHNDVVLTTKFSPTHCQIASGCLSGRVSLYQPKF
UniProt Q9Y315: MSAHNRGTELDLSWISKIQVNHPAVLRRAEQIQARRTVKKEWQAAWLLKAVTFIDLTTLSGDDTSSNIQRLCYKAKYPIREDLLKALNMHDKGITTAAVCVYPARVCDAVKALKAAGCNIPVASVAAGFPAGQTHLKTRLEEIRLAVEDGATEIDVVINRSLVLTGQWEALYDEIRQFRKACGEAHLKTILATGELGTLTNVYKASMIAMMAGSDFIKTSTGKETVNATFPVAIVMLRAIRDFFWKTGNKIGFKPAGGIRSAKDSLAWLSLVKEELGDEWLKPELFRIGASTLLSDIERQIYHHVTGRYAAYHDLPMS

[2] = compound: CC1=C(SC2=C1C(=N[C@H](C3=NN=C(N32)C)CC(=O)N)C4=CC=C(C=C4)Cl)C
Summary of the method: as §1

[3] = compound: CC1=C2C(=CC=C1)N=C(N(C2=O)C3=CC=CC=C3C)CN4C=NC5=C(N=CN=C54)N
Summary of the method: as §1

[4] = compound: Cc1sc2c(c1C)C(c1ccc(Cl)cc1)=N[C@@H](CC(=O)OC(C)(C)C)c1nnc(C)n1-2
Summary of the method: as §1

[5] = compound: c1ccc([C@@H]2C[C@H]2NC2CCNCC2)cc1
Summary of the method: as §1

Measured: log2 fold change

DESI1 (UniProt Q6ICB0)
inactive: [1] 0.035 | [2] -0.002 | [3] -0.025 | [4] 0.142 | [5] 0.014

DCAF4L2 (UniProt Q8NA75)
inactive: [1] 0.166 | [2] 0.101 | [3] 0.223 | [4] -0.031 | [5] 0.02

DCAF12L2 (UniProt Q5VW00)
inactive: [1] 0.014 | [2] 0.112 | [3] -0.014

DDHD2 (UniProt O94830)
inactive: [1] 0 | [2] 0.017 | [3] -0.007 | [4] -0.022 | [5] 0.002

DDB1 (UniProt Q16531)
inactive: [1] 0.014 | [2] 0.002 | [3] 0.003 | [4] 0.024 | [5] 0.01

DDX55 (UniProt Q8NHQ9)
inactive: [1] -0.04 | [2] 0.02 | [3] 0.036 | [4] -0.001 | [5] -0.003

DDX20 (UniProt Q9UHI6)
inactive: [1] -0.008 | [2] -0.064 | [3] -0.006 | [4] 0.027 | [5] 0.077

DBF4 (UniProt Q9UBU7)
inactive: [1] 0.073 | [2] 0.002 | [3] 0.071 | [4] 0.113 | [5] 0.078

DCTN6 (UniProt O00399)
inactive: [1] -0.063 | [2] 0.012 | [3] -0.023 | [4] 0.004 | [5] 0.024

DENND6A (UniProt Q8IWF6)
inactive: [1] -0.101 | [2] -0.008 | [3] -0.026 | [4] 0.039 | [5] 0.023

Six successive records from above, quoted:
DDB1 (UniProt Q16531)
inactive: [1] 0.014 | [2] 0.002 | [3] 0.003 | [4] 0.024 | [5] 0.01

DDX55 (UniProt Q8NHQ9)
inactive: [1] -0.04 | [2] 0.02 | [3] 0.036 | [4] -0.001 | [5] -0.003

DDX20 (UniProt Q9UHI6)
inactive: [1] -0.008 | [2] -0.064 | [3] -0.006 | [4] 0.027 | [5] 0.077

DBF4 (UniProt Q9UBU7)
inactive: [1] 0.073 | [2] 0.002 | [3] 0.071 | [4] 0.113 | [5] 0.078

DCTN6 (UniProt O00399)
inactive: [1] -0.063 | [2] 0.012 | [3] -0.023 | [4] 0.004 | [5] 0.024

DENND6A (UniProt Q8IWF6)
inactive: [1] -0.101 | [2] -0.008 | [3] -0.026 | [4] 0.039 | [5] 0.023

Additional records:

DBNL isoform 3 (UniProt Q9UJU6)
inactive: [1] 0.005 | [2] 0.007 | [3] -0.008 | [4] -0.01 | [5] 0.038

DAG1 (UniProt Q14118)
inactive: [1] 0 | [2] -0.006 | [3] 0.017 | [4] 0.022 | [5] -0.049

DCP1B (UniProt Q8IZD4)
inactive: [1] 0.201 | [2] -0.122 | [3] 0.099 | [4] -0.1 | [5] -0.014

DENND10 (UniProt Q8TCE6)
inactive: [1] 0.022 | [2] 0.113 | [3] 0.049 | [4] -0.023 | [5] -0.002

DENND4A isoform 2 (UniProt Q7Z401)
inactive: [1] -0.02 | [2] 0.028 | [3] -0.007 | [4] 0.039 | [5] -0.064

DDX41 (UniProt Q9UJV9)
inactive: [1] 0.013 | [2] -0.042 | [3] -0.025 | [4] 0.01 | [5] -0.001

DDX52 (UniProt Q9Y2R4)
inactive: [1] 0.012 | [2] -0.066 | [3] 0.019 | [4] -0.051 | [5] -0.111

DCTN2 (UniProt Q13561)
inactive: [1] -0.042 | [2] 0.029 | [3] -0.196 | [4] 0 | [5] 0.025

DDX54 isoform 2 (UniProt Q8TDD1)
inactive: [1] -0.131 | [2] 0.041 | [3] 0.09 | [4] 0.052 | [5] 0.008

DCAF10 (UniProt Q5QP82)
inactive: [1] -0.019 | [2] 0.017 | [3] 0.029 | [4] -0.202 | [5] 0.201

DFFA (UniProt O00273)
inactive: [1] 0.022 | [2] -0.024 | [3] -0.021 | [4] 0.003 | [5] -0.044

DCUN1D4 isoform 3 (UniProt Q92564)
inactive: [1] 0.084 | [2] 0.087 | [3] 0.055 | [4] -0.139 | [5] 0.055

DAB2 (UniProt P98082)
inactive: [1] -0.018 | [2] -0.002 | [3] 0.025 | [4] -0.028 | [5] 0.018

CYP20A1 (UniProt Q6UW02)
inactive: [1] 0.013 | [2] 0 | [3] 0.019 | [4] -0.032 | [5] 0.034

DERA (UniProt Q9Y315)
inactive: [1] 0.025 | [2] 0.012 | [3] -0.051 | [4] 0.061 | [5] 0.209

— the supplement of paper PMC10849652
